The source of these data is patent publication US20030003563.

Protein sequences, listed by entry. Tags and fused reporters are not part of them. Residues count along the entry.
UniProt P42224, 2-750 W37A: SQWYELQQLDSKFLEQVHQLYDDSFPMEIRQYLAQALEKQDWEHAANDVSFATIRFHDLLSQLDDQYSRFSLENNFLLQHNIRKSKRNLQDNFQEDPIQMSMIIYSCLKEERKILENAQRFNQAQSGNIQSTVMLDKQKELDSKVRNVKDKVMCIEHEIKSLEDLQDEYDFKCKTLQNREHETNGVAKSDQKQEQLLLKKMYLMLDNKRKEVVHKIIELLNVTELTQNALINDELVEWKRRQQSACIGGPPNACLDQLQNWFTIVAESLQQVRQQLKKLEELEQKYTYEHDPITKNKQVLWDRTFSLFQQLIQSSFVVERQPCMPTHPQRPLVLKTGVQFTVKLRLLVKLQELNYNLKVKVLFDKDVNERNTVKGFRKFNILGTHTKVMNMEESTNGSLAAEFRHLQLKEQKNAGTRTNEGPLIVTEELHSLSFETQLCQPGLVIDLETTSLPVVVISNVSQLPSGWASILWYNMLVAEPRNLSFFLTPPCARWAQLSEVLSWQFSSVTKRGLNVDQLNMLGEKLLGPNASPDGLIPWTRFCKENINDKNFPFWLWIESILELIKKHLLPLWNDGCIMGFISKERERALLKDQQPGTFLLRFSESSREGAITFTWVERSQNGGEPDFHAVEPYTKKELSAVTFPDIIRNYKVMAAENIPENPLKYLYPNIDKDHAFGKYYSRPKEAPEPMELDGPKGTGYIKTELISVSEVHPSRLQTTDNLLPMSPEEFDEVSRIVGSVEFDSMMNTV

A weaker result is weaker than the reference pair of the same experiment.

The target in the data set is STAT-1alpha W37A (Tyr-phosphorylated) (Homo sapiens) (UniProt P42224). Nature of the data set: EMSA. The note with it: binds as dimer, very little 2x(dimer) complex; completely displaced by unlabelled oligo; same buffer; purified recombinant protein; protein details: C-terminal 6xHis, baculovirus insect cells.

Regarding “GCCAGTCAGTTCCCGTCAATGCATCAGGTTCCCGTCAATGCAT (double strand) [tandem c-fos STAT element, 10 bp spacing]”, the binding result is “binds more weakly”.
